{
  "sequences": {"note": "Amino acid sequences for entries named in this document (tags omitted). A change or cut given only in a name is not applied to a line headed by its entry.", "UniProt O00167": "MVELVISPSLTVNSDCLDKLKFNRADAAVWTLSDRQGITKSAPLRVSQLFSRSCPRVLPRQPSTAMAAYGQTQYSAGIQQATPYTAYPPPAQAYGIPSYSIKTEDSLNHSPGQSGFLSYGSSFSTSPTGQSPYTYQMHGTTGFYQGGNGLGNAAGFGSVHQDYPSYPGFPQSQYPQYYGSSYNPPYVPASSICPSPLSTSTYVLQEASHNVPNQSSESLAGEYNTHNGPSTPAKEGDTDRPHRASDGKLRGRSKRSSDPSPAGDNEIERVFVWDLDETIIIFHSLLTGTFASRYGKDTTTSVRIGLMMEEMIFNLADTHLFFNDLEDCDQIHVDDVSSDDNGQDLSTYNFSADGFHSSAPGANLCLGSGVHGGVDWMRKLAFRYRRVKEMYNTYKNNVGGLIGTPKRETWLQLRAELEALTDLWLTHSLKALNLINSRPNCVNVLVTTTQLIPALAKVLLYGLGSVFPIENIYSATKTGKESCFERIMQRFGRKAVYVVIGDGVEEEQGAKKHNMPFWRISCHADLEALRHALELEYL"},
  "source": "PubChem BioAssay AID488837",
  "about": "(National Center for Advancing Translational Sciences (NCATS), 2010)",
  "note": "About 20 (0.006%) of roughly 330,000 compounds were called active. The shares of active, inactive and inconclusive entries below differ from those in the screen. Calls come from the whole dose curve; as a rule, active = well fitted inhibition curve with a large enough effect; inconclusive = small, poorly fitted or top-dose-only effect, or effect the other way; inactive = flat fitted curve, though single readings scatter. A potency beside an inconclusive call is a rough fit, not a confirmed value. % is set by controls: 0 for no effect and ±100 for the full control effect; potency is the fitted concentration of half-maximal effect.",
  "data": [
    {"molecular_target": "Protein phosphatase EYA2 (Homo sapiens) (UniProt O00167)", "test": "qHTS Assay for Inhibitors of the Phosphatase Activity of Eya2", "conditions": "recombinant Eya2, OMFP fluorescence dephosphorylation (OMFP is methylfluorescein phosphate); activity, negative = inhibition: at 76.9 µM (top of the series) unless noted", "method_in_brief": "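Eya2 (0.2 uM) preincubated 10 min at ambient with compound, then OMFP substrate added at 50 uM; 10 min reaction in 50 mM HEPES pH 7.5, 50 mM NaCl, 5 uM MgCl2, 0.05% BSA, 1 mM DTT. Fluorescence read at Ex 485/Em 525 nm.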", "values": [
      {"smiles": "COc1ccc(/C=C/C(=O)NC(=S)Nc2ccccn2)cc1", "Potency": "inconclusive: 282 µM [inhibitor, partial curve, poor fit]"},
      {"smiles": "O=C(COC(=O)c1cc(Cl)ccc1Cl)NC1CCCC1", "Potency": "inconclusive: 17.8 µM [inhibitor, partial curve]"},
      {"smiles": "CCn1cc(C(=O)NCCc2ccccc2)c(=O)c2cc(S(=O)(=O)N(C)C)ccc21", "Potency": "inconclusive: 100 µM [inhibitor, single point]"},
      {"smiles": "CCSC1=NSC2=NC(=O)/C(=C\\c3coc4ccccc4c3=O)C(=N)N12", "activity, negative = inhibition": "inconclusive: 87% [activator]"},
      {"smiles": "COc1ccc(C(C(=O)NC(C)(C)C)N(C(=O)CCC(=O)Nc2cc(C)on2)c2cc(C)cc(C)c2)cc1", "note": "(stereo not given)", "Potency": "inconclusive: 22.4 µM [inhibitor, partial curve]"},
      {"smiles": "CCOc1ccc(Cl)cc1/C=N/NC(=O)CNC(=O)c1ccccc1", "activity, negative = inhibition": "inactive: -6.1%"},
      {"smiles": "CC(C)(C)c1ccc(C(=O)Cn2cnnc2C#N)cc1", "Potency": "inconclusive: 316 µM [inhibitor, partial curve]"},
      {"smiles": "Cc1ccc(C)c(OCCC(=O)OCC(=O)N2CCN(S(=O)(=O)c3ccc(Cl)cc3)CC2)c1", "activity, negative = inhibition": "inactive: -1.54%"},
      {"smiles": "CCCc1c(C(=O)Nc2ccc(F)cc2F)cnn1-c1ccccc1", "Potency": "inconclusive: 100 µM [inhibitor, single point]"},
      {"smiles": "N=c1oc2c3c4c(cc2cc1C(=O)Nc1ccccc1)CCCN4CCC3", "Potency": "inconclusive: 3.98 µM [activator, partial curve]"},
      {"smiles": "CCC(=O)NC(c1ccc(C)cc1)c1ccc2cccnc2c1O", "note": "(stereo not given)", "Potency": "inconclusive: 22.4 µM [inhibitor, single point]"},
      {"smiles": "COc1ccc(NC(=O)Cn2cccc2)c(OC)c1", "Potency": "inconclusive: 70.8 µM [inhibitor, partial curve, poor fit]"},
      {"smiles": "CO/N=C(\\N)c1nonc1N", "Potency": "inconclusive: 20 µM [inhibitor, partial curve, poor fit]"},
      {"smiles": "CC(=O)NCCCOc1ccc([N+](=O)[O-])cc1Cl", "Potency": "inconclusive: 89.1 µM [inhibitor, single point]"},
      {"smiles": "O=S(=O)(c1cc(Cl)ccc1Cl)N1CCN2CCCC2C1", "note": "(stereo not given)", "Potency": "inconclusive: 100 µM [inhibitor, partial curve, poor fit]"},
      {"smiles": "O=C(CSc1ccc(Cl)cc1Cl)N1CCC(c2nc3ccccc3s2)CC1", "Potency": "inconclusive: 1120 µM [inhibitor, single point]"},
      {"smiles": "Cc1noc2ncnc(Oc3ccccc3)c12", "activity, negative = inhibition": "inactive: -9.89%"},
      {"smiles": "Cc1ccc(OCC(=O)NCCNC(=O)c2ccco2)cc1C", "Potency": "inconclusive: 12600 µM [inhibitor, partial curve]"},
      {"smiles": "COc1ccc(Cc2nnc(NC(=O)CSc3ccc(C)cc3)s2)cc1", "activity, negative = inhibition": "inactive: -0.474%"},
      {"smiles": "Cc1ccc(S(=O)(=O)N(CC(=O)Nc2cccnc2)c2cccc(Br)c2)cc1", "activity, negative = inhibition": "inactive: -2.4%"},
      {"smiles": "CC1Cc2ccccc2N1C(=O)c1cc2cccnc2n(C)c1=O", "note": "(stereo not given)", "activity, negative = inhibition": "inactive: 1.35%"},
      {"smiles": "COc1ccc(CCNC(=O)CCCNC(=O)Cn2cnc3sc(C)c(C)c3c2=O)cc1OC", "activity, negative = inhibition": "inactive: -11.4%"},
      {"smiles": "O=C1Cc2ccccc2Sc2cc(OCCCN3CCCCC3)ccc21", "activity, negative = inhibition": "inactive: 0.238%"},
      {"smiles": "COc1ccccc1NC(=S)N1CCC(c2nc3cc(C)c(C)cc3[nH]2)CC1", "Potency": "inconclusive: 20 µM [inhibitor, single point]"},
      {"smiles": "CCOC(=O)c1c(NC(C)=O)sc2c1CCN(Cc1ccccc1)C2", "activity, negative = inhibition": "inactive: 4.7%"},
      {"smiles": "COc1ccc(N(C(=O)c2ccc(Br)o2)C2C=CS(=O)(=O)C2)cc1", "note": "(stereo not given)", "Potency": "inconclusive: 28.2 µM [inhibitor, single point]"},
      {"smiles": "N#Cc1ccccc1S(=O)(=O)N1CCN(C(=O)CN2CCCSc3ccccc32)CC1", "activity, negative = inhibition": "inactive: -8.39%"},
      {"smiles": "CCOC(=O)N1CCN(Cc2cc(Cl)c3cccnc3c2O)CC1", "Potency": "inconclusive: 100 µM [inhibitor, single point]"},
      {"smiles": "COc1ccc(Nc2nc(C)cc(C)n2)cc1Cl", "Potency": "inconclusive: 22.4 µM [inhibitor, single point]"},
      {"smiles": "CCn1c(C)c(C(C)=O)c(N2CCCCC2)nc1=S", "activity, negative = inhibition": "inactive: -15%"},
      {"smiles": "CN1CCN(S(=O)(=O)c2cccc(C(=O)Nc3cccc(S(N)(=O)=O)c3)c2)CC1", "Potency": "inconclusive: 31.6 µM [inhibitor, partial curve]"},
      {"smiles": "CS(=O)(=O)c1ccc2nc(NC(=O)c3ccc(N4C(=O)CCC4=O)cc3)sc2c1", "Potency": "inconclusive: 100 µM [inhibitor, single point]"},
      {"smiles": "CCC(=O)Nc1nnc(S(=O)(=O)N(CC(C)C)c2ccccc2)s1", "Potency": "inconclusive: 282 µM [inhibitor, partial curve]"},
      {"smiles": "Cc1ccc(C(C)C)c(OCCNC(=O)c2ccccc2O)c1", "Potency": "inconclusive: 15.8 µM [inhibitor, single point]"},
      {"smiles": "Cc1nn(-c2ccc(N3CCCCC3)nn2)c(C)c1CCC(=O)Nc1cccc(F)c1", "Potency": "inconclusive: 22.4 µM [inhibitor, single point]"},
      {"smiles": "COCCNC(=O)Cc1cn(C)c2ccccc12", "Potency": "inconclusive: 89.1 µM [inhibitor, single point]"},
      {"smiles": "Cc1ccccc1NC(=O)N1CCCC1C(=O)NCc1ccccc1", "note": "(stereo not given)", "Potency": "inconclusive: 17.8 µM [inhibitor, single point]"},
      {"smiles": "CC(C)CN1C(=O)C(=O)N(CC(=O)Nc2cc(Cl)ccc2Oc2ccccc2)C1=O", "Potency": "inconclusive: 89.1 µM [inhibitor, partial curve, poor fit]"},
      {"smiles": "Cc1ccc(C)c(Cn2nnc3c(=O)[nH]c(C4CCCN(C(=O)C5CCCCC5)C4)nc32)c1", "note": "(stereo not given)", "Potency": "inconclusive: 89.1 µM [inhibitor, single point]"},
      {"smiles": "Cc1ccc(-c2nn3c(C)nnc3c3ccccc23)cc1S(=O)(=O)NC(C)(C)CO", "Potency": "inconclusive: 22.4 µM [inhibitor, single point]"},
      {"smiles": "COc1ccc(N(CC(=O)Nc2cc(Cl)ccc2OC)S(=O)(=O)c2c(C)[nH]c(=O)[nH]c2=O)cc1", "activity, negative = inhibition": "inactive: -0.854%"},
      {"smiles": "COCCCn1c(=O)c2sccc2n(Cc2cccc(F)c2)c1=O", "activity, negative = inhibition": "inactive: -4.26%"},
      {"smiles": "COc1ccccc1N1CCN(C(=O)c2ccco2)CC1", "Potency": "inconclusive: 31.6 µM [inhibitor, partial curve]"},
      {"smiles": "O=C(Nc1ccccn1)[C@@H]1CCC(=O)N1C(=O)OCc1ccccc1", "activity, negative = inhibition": "inactive: 6.64%"},
      {"smiles": "O=C(CSc1nc2ccccc2o1)N/N=C/c1ccc(O)c(O)c1", "Potency": "inconclusive: 316 µM [inhibitor, partial curve, poor fit]"},
      {"smiles": "CCOC(=O)c1c(-c2ccc(OC)cc2)csc1/N=C/C1C(=O)CCCC1=O", "activity, negative = inhibition": "inactive: 11.2%"},
      {"smiles": "CCC(=O)Nc1cccc(NC(=S)NC(=O)c2ccc(C)cc2)c1", "activity, negative = inhibition": "inactive: -6.19%"},
      {"smiles": "CC(Sc1nc2ccccc2s1)C(=O)c1c(N)n(C)c(=O)n(C)c1=O", "note": "(stereo not given)", "activity, negative = inhibition": "inactive: 9.04%"},
      {"smiles": "CC(=O)N1c2ccccc2CCc2ccc([N+](=O)[O-])cc21", "Potency": "inconclusive: 1410 µM [inhibitor, single point]"},
      {"smiles": "C#Cc1ccc(CN2CCN(CCc3ccccc3)C(CCO)C2)cc1", "note": "(stereo not given)", "Potency": "inconclusive: 100 µM [inhibitor, single point]"},
      {"smiles": "O=C(NC1CCC(O)CC1)c1cc(-c2ccco2)nc2ccccc12", "note": "(stereo not given)", "Potency": "inconclusive: 1000 µM [inhibitor, partial curve, poor fit]"},
      {"smiles": "Cc1cc(N=Nc2c(O)c3ccccc3[nH]c2=O)ccc1N=Nc1ccc(C(=O)N(C)C)cc1", "Potency": "inconclusive: 15.8 µM [inhibitor, single point]"},
      {"smiles": "Cc1cccc(C)c1OCc1cc(C(=O)N2CC3C[C@@H]4CC2C[C@H](C3)C4)no1", "activity, negative = inhibition": "inactive: 2.09%"},
      {"smiles": "CCOc1ccccc1N1CCN(C(=O)C(Sc2ccccc2)c2ccccc2)CC1", "note": "(stereo not given)", "Potency": "inconclusive: 100 µM [inhibitor, single point]"},
      {"smiles": "Cc1ccc(-c2c(NCCc3ccccc3)c(=O)c2=O)cc1", "Potency": "inconclusive: 112 µM [inhibitor, single point]"},
      {"smiles": "COCCCNC(=O)CSc1ccsc1[N+](=O)[O-]", "activity, negative = inhibition": "inactive: 2.36%"},
      {"smiles": "CSc1nsc(N/N=C/c2ccccc2)c1C#N", "Potency": "inconclusive: 20 µM [inhibitor, single point]"},
      {"smiles": "CCCCn1c2ccc(F)cc2c2nnc(SCCN3CCCCC3)nc21", "Potency": "inconclusive: 251 µM [inhibitor, partial curve]"},
      {"smiles": "CSc1ccc(NC(=O)Nc2cccn(Cc3ccccc3)c2=O)cc1", "Potency": "inconclusive: 70.8 µM [inhibitor, single point]"},
      {"smiles": "CC[n+]1c(/C=C/c2cc([N+](=O)[O-])ccc2O)ccc2ccccc21", "Potency": "inconclusive: 141 µM [inhibitor, single point]"},
      {"smiles": "Cc1ccc(CNC(=O)C2CCC(CNS(=O)(=O)c3cccc4cccnc34)CC2)cc1", "note": "(stereo not given)", "activity, negative = inhibition": "inactive: 8.97%"},
      {"smiles": "NC(=O)CSc1nnc2ccc(-c3ccc(Cl)cc3)nn12", "Potency": "inconclusive: 100 µM [inhibitor, single point]"},
      {"smiles": "CC(C)CNC(=O)N[C@@H](CC(C)C)C(=O)O", "Potency": "inconclusive: 20 µM [inhibitor, single point]"},
      {"smiles": "O=C(O)CCCn1cc(NC(=O)c2ccc(F)cc2)cn1", "Potency": "inconclusive: 112 µM [inhibitor, single point]"},
      {"smiles": "CC(C)Oc1cccc(-c2cc(C(=O)NN3CCOCC3)c3ccccc3n2)c1", "activity, negative = inhibition": "inactive: -3.98%"},
      {"smiles": "CCCCCCn1c(=O)[nH]c2nc3cc(N)c(C)cc3nc2c1=O", "Potency": "inconclusive: 39.8 µM [activator, partial curve]"},
      {"smiles": "CN(C)c1ccc(/C=C/C(=O)c2cccc(Br)c2)cc1", "Potency": "inconclusive: 12.6 µM [activator, partial curve, poor fit]"},
      {"smiles": "Cc1c(NC(=O)CN2C(=O)NC3(CCCC3)C2=O)c(=O)n(-c2ccccc2)n1C", "activity, negative = inhibition": "inactive: 2.24%"},
      {"smiles": "CCOc1ccc2nc(N3CCC(C(=O)N4CCN(c5ccccn5)CC4)CC3)sc2c1", "Potency": "inconclusive: 14.1 µM [inhibitor, single point]"},
      {"smiles": "O=C(O)c1cnn(-c2ccccc2)c1C(F)(F)F", "Potency": "inconclusive: 141 µM [inhibitor, partial curve, poor fit]"}
    ]}
  ]
}
